Test [1] addresses NF-κB p65 (mouse (endogenous in BMDMs and rectal LPLs)) (UniProt Q04207). Kind of test: co-IP; lysates of rectal LPLs of WT and Per2-/- mice; IP with anti-PER2 or anti-p65, immunoblot with anti-PER2 or anti-p65. (In general: A western blot detects proteins with antibodies after separation by electrophoresis.)
Test [2] shares this target. Nature of the test: ChIP-reChIP; formaldehyde-crosslinked chromatin of BMDMs from WT mice, with or without LPS for 24 h; p65 and PER2 on the Gys1 promoter, read by PCR and qPCR.
Test [3] shares this target. Nature of the test: co-IP; nuclear (nucleoprotein) extracts of BMDMs from WT mice, with or without LPS stimulation; non-denaturing lysis buffer (20 mM Tris-HCl pH 8.0, 137 mM NaCl, 2 mM EDTA, 1% NP-40); antibody overnight at 4 °C, Protein G-sepharose; Western blot.
Test [4] has as its target PER2 (Period2) (mouse (endogenous in BMDMs, rectal LPLs and NIH3T3)) (UniProt O54943). Kind of test: co-IP; lysates of rectal LPLs of WT and Per2-/- mice; IP with anti-PER2 or anti-p65, immunoblot with anti-PER2 or anti-p65.

Amino acid sequences for entries named in this document (tags omitted).
UniProt Q04207: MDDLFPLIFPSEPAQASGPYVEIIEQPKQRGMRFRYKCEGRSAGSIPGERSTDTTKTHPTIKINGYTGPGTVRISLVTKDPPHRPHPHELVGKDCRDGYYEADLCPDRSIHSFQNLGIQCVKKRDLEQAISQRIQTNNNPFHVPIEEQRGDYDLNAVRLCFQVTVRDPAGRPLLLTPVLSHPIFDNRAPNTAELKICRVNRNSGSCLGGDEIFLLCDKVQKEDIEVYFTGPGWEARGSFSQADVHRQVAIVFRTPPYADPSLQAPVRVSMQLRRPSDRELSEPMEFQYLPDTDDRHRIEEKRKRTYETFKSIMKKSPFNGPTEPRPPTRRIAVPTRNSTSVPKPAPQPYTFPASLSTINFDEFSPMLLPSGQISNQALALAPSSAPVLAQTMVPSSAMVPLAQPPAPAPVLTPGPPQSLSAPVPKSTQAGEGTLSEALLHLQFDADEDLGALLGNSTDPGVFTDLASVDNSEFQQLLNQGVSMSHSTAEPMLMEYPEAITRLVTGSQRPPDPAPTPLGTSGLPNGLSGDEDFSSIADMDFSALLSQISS
UniProt O54943: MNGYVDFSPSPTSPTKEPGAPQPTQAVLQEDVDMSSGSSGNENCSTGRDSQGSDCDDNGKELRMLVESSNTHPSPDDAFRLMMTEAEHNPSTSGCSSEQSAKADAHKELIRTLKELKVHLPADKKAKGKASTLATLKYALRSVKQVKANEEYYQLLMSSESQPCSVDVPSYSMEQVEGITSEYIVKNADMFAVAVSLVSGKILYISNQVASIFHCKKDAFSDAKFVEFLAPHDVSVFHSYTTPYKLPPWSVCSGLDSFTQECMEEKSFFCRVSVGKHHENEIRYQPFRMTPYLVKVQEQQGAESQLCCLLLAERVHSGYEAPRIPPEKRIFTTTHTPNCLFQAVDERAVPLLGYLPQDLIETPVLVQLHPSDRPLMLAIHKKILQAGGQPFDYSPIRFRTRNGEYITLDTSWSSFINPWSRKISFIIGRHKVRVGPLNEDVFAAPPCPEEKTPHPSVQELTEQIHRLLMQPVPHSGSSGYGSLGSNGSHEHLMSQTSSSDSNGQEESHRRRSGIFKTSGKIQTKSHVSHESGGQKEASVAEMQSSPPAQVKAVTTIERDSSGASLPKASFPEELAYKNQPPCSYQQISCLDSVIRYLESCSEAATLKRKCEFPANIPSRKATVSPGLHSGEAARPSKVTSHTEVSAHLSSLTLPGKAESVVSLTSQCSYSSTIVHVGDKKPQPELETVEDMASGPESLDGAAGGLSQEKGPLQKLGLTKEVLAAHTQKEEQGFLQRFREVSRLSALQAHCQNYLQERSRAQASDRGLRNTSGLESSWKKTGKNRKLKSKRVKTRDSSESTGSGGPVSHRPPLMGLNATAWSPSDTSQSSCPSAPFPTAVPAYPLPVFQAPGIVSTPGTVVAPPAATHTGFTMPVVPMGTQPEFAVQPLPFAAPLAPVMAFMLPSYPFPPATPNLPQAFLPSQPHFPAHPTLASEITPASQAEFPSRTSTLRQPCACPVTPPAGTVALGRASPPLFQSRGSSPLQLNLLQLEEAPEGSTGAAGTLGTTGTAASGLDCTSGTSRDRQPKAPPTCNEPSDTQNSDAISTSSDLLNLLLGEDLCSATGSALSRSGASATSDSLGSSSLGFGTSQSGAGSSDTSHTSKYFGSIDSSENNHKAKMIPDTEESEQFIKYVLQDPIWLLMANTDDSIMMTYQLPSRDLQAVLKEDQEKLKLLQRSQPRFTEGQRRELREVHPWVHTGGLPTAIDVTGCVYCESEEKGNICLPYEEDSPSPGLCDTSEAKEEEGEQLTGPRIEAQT

Results are given in words; binding and its absence hold for the method and conditions named. For some of these results: Binding seen in cells or lysates may run through a third protein. Some entries that bind do so weakly or less than the wild type.

With “PER2 (Period2) (from UniProt O54943 1-1257)”, the binding result in test [1], in test [2] and in test [3] was “binds” throughout.
Turning to NF-κB p65 (from UniProt Q04207 1-549), the binding entry in test [4] is “binds”.

Source of the values: publication PMC10534228.
